Measured values reported in US6830603B2, “Volatility-inhibited urea fertilizers” (Whitehurst Associates, Inc., priority 2002, dated 2004).

Assay: Volatile nitrogen (ammonia) release from fertilizer applied to moistened soil
Conditions: 28° C., 15% moisture, 180 lb N/acre

## NC(N)=O [Urea, urea]
Soil sample 1, pH 7.2
  Percent Urea Nitrogen Lost at 2 days: 52.3%
  Percent Urea Nitrogen Lost at 4 days: 59.2%
Soil sample 2, pH 4.0
  Percent Urea Nitrogen Lost at 2 days: 21.6%
  Percent Urea Nitrogen Lost at 4 days: 24.9%
Soil sample 3, pH 4.9
  Percent Urea Nitrogen Lost at 2 days: 34.0%
  Percent Urea Nitrogen Lost at 4 days: 37.1%
Soil sample 4, pH 5.0
  Percent Urea Nitrogen Lost at 2 days: 31.1%
  Percent Urea Nitrogen Lost at 4 days: 34.0%
